Earlier results in EP3196312B1, “EFFICIENT CONVERSION OF METHYLGLYOXAL INTO HYDROXYACETONE USING NOVEL ENZYMES AND APPLI CATIONS THEREOF” (Metabolic Explorer, priority 2016, dated 2017).
At least one read-out could not be matched to a standard name with certainty.

Legend:
[1] = biological target: T1, Escherichia coli YqhD (alcohol dehydrogenase, Uniprot Q46856), wild type, SEQ ID NO: 7 (Escherichia coli, UniProt Q46856); conditions: toward methylglyoxal and NADPH; as cited from WO 2011/012697; cited from earlier work
T1 sequence (Q46856 1-387): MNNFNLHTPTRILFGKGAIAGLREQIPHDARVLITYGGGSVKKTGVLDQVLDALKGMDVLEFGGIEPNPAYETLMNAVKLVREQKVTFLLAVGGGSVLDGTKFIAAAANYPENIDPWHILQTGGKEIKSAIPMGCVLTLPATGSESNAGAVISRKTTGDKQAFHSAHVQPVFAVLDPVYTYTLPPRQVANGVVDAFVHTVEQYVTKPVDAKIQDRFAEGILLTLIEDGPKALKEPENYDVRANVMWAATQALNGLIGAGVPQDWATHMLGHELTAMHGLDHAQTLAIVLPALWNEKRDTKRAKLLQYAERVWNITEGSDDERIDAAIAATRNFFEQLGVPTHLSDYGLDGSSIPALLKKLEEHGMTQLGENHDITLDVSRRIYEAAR

[2] = biological target: T2, Escherichia coli YqhD variant YqhD*(G149E), SEQ ID NO: 9 (Escherichia coli, UniProt Q46856, G149E); conditions: toward methylglyoxal and NADPH; as cited from WO 2011/012697; cited from earlier work
T2 sequence (Q46856 1-387 G149E): T1 sequence (Q46856 1-387)

Structure (SMILES): CC(=O)C=O [methylglyoxal]
- kcat/Km [1]: 0.4 mM⁻¹ s⁻¹
- kcat/Km [2]: 0.8 mM⁻¹ s⁻¹
